From PubChem BioAssay record AID2202234 (NCATS, 2025).

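HNT-34 acute myeloid leukemia cells exposed to compounds for 48 h, with cell viability measured by CellTiter-Glo luminescence.
Each compound was run as a dilution series that mostly topped out at 46 µM.
The value is the concentration giving half of the fitted maximal loss of viability; smaller values mean stronger inhibitors.
Calls come from the fitted dose curve, and inconclusive marks inhibition that is small, poorly fitted or seen only at the highest dose.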

Values are in µM.
Every entry below has the call inconclusive.
These entries are mostly ones the record files as inconclusive; other results of the assay are not listed here.
A potency from a partial, single-point or poor curve is only a rough figure.
Some entries filed as inconclusive have a full curve.

SMILES	Potency (µM)	curve
CC(Nc1ncnc2nc[nH]c12)c1cc2cccc(Cl)c2c(=O)n1-c1ccccc1 (configuration not stated)	7.422	inhibitor, partial curve
CN(C)Cc1cccc(N=C(c2ccccc2)c2c(O)[nH]c3cc(C(N)=O)ccc23)c1	16.62	inhibitor, partial curve
CNC(=O)c1cc(COc2nnc(Nc3ccc(Cl)cc3)c3ccoc23)ccn1	26.33	inhibitor, single point
Cc1cc([C@@H](C)Nc2ccccc2C(=O)O)c2nc(N3CCOCC3)cc(=O)n2c1	14.81	inhibitor, partial curve
Nc1ccn([C@@H]2C(F)=C(CO)[C@@H](O)[C@H]2O)c(=O)n1	7.422	inhibitor, partial curve
CC(C)(C)OC(=O)CN(Cc1ccc(Cl)cc1)Cc1ccc([N+](=O)[O-])s1	33.15	inhibitor, single point
O=C(O)c1ccc(Nc2ncc3c(n2)-c2ccc(Cl)cc2C(c2c(F)cccc2F)=NC3)cc1	0.2633	inhibitor, full curve
O=C(N[C@@H](COc1ccc2[nH]c(=O)[nH]c2c1)c1ccccc1)c1cccn(Cc2ccc(F)c(F)c2)c1=O	7.422	inhibitor, partial curve
CC[C@H]1OC(=O)[C@H](C)[C@@H](O[C@H]2C[C@@](C)(OC)[C@@H](O)[C@H](C)O2)[C@H](C)[C@@H](O[C@@H]2O[C@H](C)C[C@H](N(C)C)[C@H]2O)[C@](C)(O)C[C@@H](C)CN(C)[C@H](C)[C@@H](O)[C@]1(C)O	37.2	inhibitor, single point
NC(=O)[C@@H](CCC(F)(F)F)N(Cc1ccc(-c2ncon2)cc1F)S(=O)(=O)c1ccc(Cl)cc1	11.76	inhibitor, partial curve
CONC(=O)c1ccccc1Nc1cc(Nc2cc(C)nn2C(C)C)ncc1Cl	33.15	inhibitor, single point
Cc1cc(CS(=O)(=O)c2ccccc2)cc(OCc2ccc(CN3CCC[C@@H]3CO)cc2)c1	18.64	inhibitor, single point
O=C(O)CNC(=O)c1ncc(-c2cccc(Cl)c2)cc1O	33.15	inhibitor, single point
S=P(N1CC1)(N1CC1)N1CC1	37.2	inhibitor, single point
COc1ncc(Nc2ncc([C@H](C)N3CCN(S(C)(=O)=O)CC3)cc2-c2nc(C)nc(N)n2)cc1F	7.422	inhibitor, partial curve
NC1=NC(=O)N2CC12 (configuration not stated)	33.15	inhibitor, single point
CCN(C(=O)c1c(O)c2c(Cl)cccc2n(C)c1=O)c1ccccc1	5.254	inhibitor, full curve
COc1ccc(CC2SC(=O)NC2=O)cc1C(=O)NCc1ccc(C(F)(F)F)cc1 (configuration not stated)	18.64	inhibitor, partial curve
O=c1[nH]c(=O)n([C@H]2C[C@H](O)[C@@H](CO)O2)cc1C(F)(F)F	4.174	inhibitor, full curve
CN(C)[C@@H]1C(=O)C(C(N)=O)=C(O)[C@@]2(O)C(=O)C3=C(O)c4c(O)cccc4[C@@](C)(O)[C@H]3C[C@@H]12	18.64	inhibitor, partial curve
Cn1cc(C2=C(c3cn(C)c4cc([N+](=O)[O-])ccc34)C(=O)NC2=O)c2ccccc21	0.4174	inhibitor, full curve
N#CC(c1ccc(Cl)cc1)c1c(Cl)cc(-n2ncc(=O)[nH]c2=O)cc1Cl (configuration not stated)	33.15	inhibitor, partial curve, poor fit
O=C1[C@H](CC[C@H](O)c2ccc(F)cc2)[C@@H](c2ccc(O)cc2)N1c1ccc(F)cc1	26.33	inhibitor, single point
Cc1cccc(/C=N/Nc2cc(N3CCOCC3)nc(OCCc3ccccn3)n2)c1	33.15	inhibitor, single point
O=C(CCN1CCN(C(=O)OCc2cc(Cl)cc(Cl)c2)CC1)c1ccc2[nH]c(=O)oc2c1	33.15	inhibitor, single point
O=C(O)c1c(Cl)c(Cl)c(Cl)c(Cl)c1-c1c2cc(I)c(=O)c(I)c-2oc2c(I)c(O)c(I)cc12	16.62	inhibitor, partial curve
O=C(O)c1ccc(O)c2ncccc12	37.2	inhibitor, single point
NS(=O)(=O)c1ccc(NC2=CC(=O)c3ccccc3C2=O)cc1	5.254	inhibitor, partial curve
CN1CCC(=C2c3ccccc3CCc3sccc32)CC1	14.81	inhibitor, partial curve
C[C@H](NC(=O)[C@H]1NCC[C@@H]1O)c1ccc(-c2noc(CCC3CCCC3)n2)cc1	16.62	inhibitor, partial curve, poor fit
CSc1cccc(Nc2ncc3cc(-c4c(Cl)cccc4Cl)c(=O)n(C)c3n2)c1	0.0934	inhibitor, full curve, poor fit
Oc1ccc(C2CCN(c3ccnc4ccccc34)CC2)cc1O	16.62	inhibitor, partial curve
COCCOC(=O)C1=C(C)NC2=C(C(=O)CC(c3ccccc3OC)C2)C1c1cccc(O)c1 (configuration not stated)	16.62	inhibitor, partial curve
CC[C@H](C)n1cc(C)c2c(C(=O)NCc3c(C)cc(C)[nH]c3=O)cc(-c3ccc(N4CCNCC4)nc3)cc21	23.47	inhibitor, partial curve
COc1ccc(C(=O)CC(=O)c2ccc(C(C)(C)C)cc2)cc1	26.33	inhibitor, single point
Cc1cc(O)c2c(c1)C(=O)c1cc(O)cc(O)c1C2=O	37.2	inhibitor, single point
CCc1ccc(CCOc2ccc(CC3SC(=O)NC3=O)cc2)nc1 (configuration not stated)	1.864	inhibitor, full curve, poor fit
N#C/C(=C(/N)Sc1ccc(N)cc1)c1ccccc1C(F)(F)F	16.62	inhibitor, partial curve
CO[C@H]1/C=C/O[C@@]2(C)Oc3c(C)c(O)c4c(O)c(c5c(c4c3C2=O)=NC2(CCN(CC(C)C)CC2)N=5)NC(=O)/C(C)=C/C=C/[C@H](C)[C@H](O)[C@@H](C)[C@@H](O)[C@@H](C)[C@H](OC(C)=O)[C@@H]1C	26.33	inhibitor, single point

Once more, the final 5:

COc1ccc(C(=O)CC(=O)c2ccc(C(C)(C)C)cc2)cc1 gave Potency 26.33 µM (inhibitor, single point).
Cc1cc(O)c2c(c1)C(=O)c1cc(O)cc(O)c1C2=O gave Potency 37.2 µM (inhibitor, single point).
CCc1ccc(CCOc2ccc(CC3SC(=O)NC3=O)cc2)nc1 (configuration not stated) gave Potency 1.864 µM (inhibitor, full curve, poor fit).
N#C/C(=C(/N)Sc1ccc(N)cc1)c1ccccc1C(F)(F)F gave Potency 16.62 µM (inhibitor, partial curve).
CO[C@H]1/C=C/O[C@@]2(C)Oc3c(C)c(O)c4c(O)c(c5c(c4c3C2=O)=NC2(CCN(CC(C)C)CC2)N=5)NC(=O)/C(C)=C/C=C/[C@H](C)[C@H](O)[C@@H](C)[C@@H](O)[C@@H](C)[C@H](OC(C)=O)[C@@H]1C gave Potency 26.33 µM (inhibitor, single point).